Compound in the assay: Nc1nc2c(ncn2[C@@H]2O[C@H](COP(=O)(O)OP(=O)(O)OP(=O)(O)O)[C@@H](O)[C@H]2O)c(=O)[nH]1 [guanosine triphosphate]
Nature of the assay: NP40-soluble protein abundance relative to vehicle (solubility fold change) (ratio); higher = more soluble protein in presence of GTP. How it is done: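 Solubility proteome profiling in Jurkat crude lysate. Lysate was treated with Mg-GTP (0.1-10 mM) for 10 min at room temperature and 3 min at 37 °C, then solubilised with 0.8% NP40 and benzonase, followed by ultracentrifugation. Proteins were quantified by TMT10 LC-MS/MS; the value is the NP40-soluble abundance relative to the NP40-processed vehicle, from 3 independent experiments.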

Chains of the proteins cited; added tags and fusions are not shown. Lines headed by an entry give the natural chain unless they say otherwise; changes in a name come on top.
UniProt A6NDG6: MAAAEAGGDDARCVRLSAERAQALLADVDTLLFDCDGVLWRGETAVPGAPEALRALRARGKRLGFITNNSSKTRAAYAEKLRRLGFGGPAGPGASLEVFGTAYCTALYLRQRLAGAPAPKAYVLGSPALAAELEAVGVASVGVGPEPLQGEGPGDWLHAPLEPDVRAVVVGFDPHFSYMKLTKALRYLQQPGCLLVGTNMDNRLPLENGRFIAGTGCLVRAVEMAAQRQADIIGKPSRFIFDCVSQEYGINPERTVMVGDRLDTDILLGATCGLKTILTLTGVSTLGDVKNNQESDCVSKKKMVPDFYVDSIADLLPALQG
UniProt P13010: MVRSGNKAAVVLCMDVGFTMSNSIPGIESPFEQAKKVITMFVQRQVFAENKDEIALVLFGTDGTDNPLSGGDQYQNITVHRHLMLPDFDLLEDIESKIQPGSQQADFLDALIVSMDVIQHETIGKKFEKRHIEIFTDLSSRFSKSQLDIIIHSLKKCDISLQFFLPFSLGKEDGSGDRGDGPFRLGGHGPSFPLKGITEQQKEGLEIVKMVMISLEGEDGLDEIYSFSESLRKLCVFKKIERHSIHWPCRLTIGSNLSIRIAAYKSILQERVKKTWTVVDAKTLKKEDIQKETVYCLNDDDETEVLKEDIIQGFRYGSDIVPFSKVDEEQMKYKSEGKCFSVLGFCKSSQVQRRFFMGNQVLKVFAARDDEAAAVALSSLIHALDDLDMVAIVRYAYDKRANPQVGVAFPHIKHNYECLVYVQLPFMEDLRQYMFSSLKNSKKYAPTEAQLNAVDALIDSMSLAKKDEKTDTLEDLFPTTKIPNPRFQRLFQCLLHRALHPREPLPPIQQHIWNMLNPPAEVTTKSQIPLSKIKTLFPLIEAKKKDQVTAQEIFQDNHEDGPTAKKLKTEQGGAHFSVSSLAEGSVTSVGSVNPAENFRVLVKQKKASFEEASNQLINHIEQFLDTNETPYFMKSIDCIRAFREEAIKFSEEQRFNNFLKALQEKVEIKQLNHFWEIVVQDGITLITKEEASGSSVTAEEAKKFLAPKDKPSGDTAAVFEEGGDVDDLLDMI
UniProt P05107, whole entry: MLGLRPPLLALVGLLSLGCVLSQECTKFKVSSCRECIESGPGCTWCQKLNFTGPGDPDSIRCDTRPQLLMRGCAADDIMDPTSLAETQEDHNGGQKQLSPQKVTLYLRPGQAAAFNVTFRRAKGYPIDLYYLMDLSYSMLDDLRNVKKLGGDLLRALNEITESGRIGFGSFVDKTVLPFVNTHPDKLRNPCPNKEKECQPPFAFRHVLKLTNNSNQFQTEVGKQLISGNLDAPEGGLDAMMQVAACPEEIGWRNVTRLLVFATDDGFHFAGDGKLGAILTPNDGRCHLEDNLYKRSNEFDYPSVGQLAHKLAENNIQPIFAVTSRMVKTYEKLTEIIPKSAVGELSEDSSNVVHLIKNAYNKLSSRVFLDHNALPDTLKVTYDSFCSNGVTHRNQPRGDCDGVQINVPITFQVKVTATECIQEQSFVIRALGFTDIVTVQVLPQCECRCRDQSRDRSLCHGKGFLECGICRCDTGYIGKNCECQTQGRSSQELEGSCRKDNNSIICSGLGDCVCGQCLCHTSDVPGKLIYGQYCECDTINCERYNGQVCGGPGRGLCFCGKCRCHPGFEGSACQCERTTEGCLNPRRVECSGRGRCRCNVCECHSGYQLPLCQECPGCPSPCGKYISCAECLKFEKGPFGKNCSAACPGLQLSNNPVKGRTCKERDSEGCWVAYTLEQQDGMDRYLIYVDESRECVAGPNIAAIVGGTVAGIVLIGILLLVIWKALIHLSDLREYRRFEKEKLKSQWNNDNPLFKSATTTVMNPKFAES
UniProt P99999: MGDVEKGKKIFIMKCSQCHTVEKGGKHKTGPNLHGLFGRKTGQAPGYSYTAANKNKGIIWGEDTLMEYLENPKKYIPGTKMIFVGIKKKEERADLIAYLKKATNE
UniProt Q86XS8: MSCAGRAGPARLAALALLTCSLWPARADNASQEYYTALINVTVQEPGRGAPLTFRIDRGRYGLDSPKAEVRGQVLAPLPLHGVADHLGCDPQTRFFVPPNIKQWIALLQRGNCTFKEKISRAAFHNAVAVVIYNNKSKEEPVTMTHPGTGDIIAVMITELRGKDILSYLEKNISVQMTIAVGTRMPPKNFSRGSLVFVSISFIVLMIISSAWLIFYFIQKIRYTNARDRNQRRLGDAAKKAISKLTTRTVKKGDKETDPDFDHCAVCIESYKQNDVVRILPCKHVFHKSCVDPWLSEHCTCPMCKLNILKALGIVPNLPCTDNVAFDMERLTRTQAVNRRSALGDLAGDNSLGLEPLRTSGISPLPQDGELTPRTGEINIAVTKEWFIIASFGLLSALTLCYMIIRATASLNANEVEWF

± gives the standard deviation of the averaged measurements. Some of the results follow.

Consider PGP (UniProt A6NDG6), for which the NP40-soluble protein abundance (concentration: 0.1mM) worked out at 0.992 ± 0.03; the NP40-soluble protein abundance (concentration: 0.5mM) worked out at 0.966 ± 0.018; the NP40-soluble protein abundance (concentration: 1mM) turned out to be 0.922 ± 0.065; the NP40-soluble protein abundance (concentration: 2mM) came to 0.893 ± 0.036; the NP40-soluble protein abundance (concentration: 4mM) was determined as 0.9 ± 0.049; the NP40-soluble protein abundance (concentration: 6mM) amounted to 0.882 ± 0.04. For the same target, the NP40-soluble protein abundance (concentration: 8mM) amounted to 0.849 ± 0.095 and the NP40-soluble protein abundance (concentration: 10mM) turned out to be 0.852 ± 0.06.
For the target “C9JZ81 and related entries (UniProt P13010)”, the NP40-soluble protein abundance (concentration: 0.1mM) came to 1.02 ± 0.029; the NP40-soluble protein abundance (concentration: 0.5mM) turned out to be 1.05 ± 0.064; the NP40-soluble protein abundance (concentration: 1mM) amounted to 0.9641 ± 0.0045; the NP40-soluble protein abundance (concentration: 2mM) came to 0.978 ± 0.056; the NP40-soluble protein abundance (concentration: 4mM) is 0.992 ± 0.036; the NP40-soluble protein abundance (concentration: 6mM) came out at 0.961 ± 0.047. The NP40-soluble protein abundance amounted to 0.929 ± 0.024 (concentration: 8mM) and 0.8996 ± 0.0052 (concentration: 10mM).
Turning to “D3DSM0 and related entries (UniProt P05107)”, the NP40-soluble protein abundance by setting is: (concentration: 0.1mM) 0.983 ± 0.018; (concentration: 0.5mM) 0.961 ± 0.018; (concentration: 1mM) 0.977 ± 0.034; (concentration: 2mM) 0.96 ± 0.065; (concentration: 4mM) 0.95 ± 0.065; (concentration: 6mM) 0.956 ± 0.05. Further, the NP40-soluble protein abundance reads like this: (concentration: 8mM) 1 ± 0.024; (concentration: 10mM) 0.989 ± 0.028.
For the target “C9JFR7 and related entries (UniProt P99999)”, the NP40-soluble protein abundance (concentration: 0.1mM) worked out at 0.84 ± 0.12; the NP40-soluble protein abundance (concentration: 0.5mM) turned out to be 0.815 ± 0.17; the NP40-soluble protein abundance (concentration: 1mM) was 0.86 ± 0.17; the NP40-soluble protein abundance (concentration: 2mM) came out at 0.9 ± 0.18; the NP40-soluble protein abundance (concentration: 4mM) was 0.851 ± 0.24; the NP40-soluble protein abundance (concentration: 6mM) was 0.863 ± 0.14. Moreover, the NP40-soluble protein abundance is, setting by setting: (concentration: 8mM) 0.859 ± 0.12; (concentration: 10mM) 0.949 ± 0.14.
With “E5RI87 and related entries (UniProt Q86XS8)”, the NP40-soluble protein abundance runs as follows: (concentration: 0.1mM) 1.08 ± 0.28; (concentration: 0.5mM) 1.06 ± 0.099; (concentration: 1mM) 1.14 ± 0.34; (concentration: 2mM) 1.05 ± 0.16; (concentration: 4mM) 1.11 ± 0.37; (concentration: 6mM) 1.04 ± 0.14. The NP40-soluble protein abundance was 1.17 ± 0.38 (concentration: 8mM) and 0.991 ± 0.043 (concentration: 10mM).

For the origin of these results see the supplement of paper PMC6411743.
